These results are taken from US7811561 (dated 2010).

Sequences of proteins named here, by UniProt entry; tags and fusion partners are left off.
UniProt P25322: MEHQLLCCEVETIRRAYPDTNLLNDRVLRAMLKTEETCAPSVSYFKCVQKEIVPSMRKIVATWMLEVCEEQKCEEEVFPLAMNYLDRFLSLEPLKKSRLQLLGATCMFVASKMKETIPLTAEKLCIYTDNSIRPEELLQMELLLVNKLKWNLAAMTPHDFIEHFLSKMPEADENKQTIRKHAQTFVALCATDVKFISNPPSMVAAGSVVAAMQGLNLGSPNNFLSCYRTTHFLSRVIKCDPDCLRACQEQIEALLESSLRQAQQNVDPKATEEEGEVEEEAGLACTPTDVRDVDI

These are yes or no findings as the source states them, for the method shown. In cells and extracts the contact can be indirect. Some binding calls cover weakened binding; strength is not graded here.

The test concerns the target T1, cyclin D1 (UniProt P25322 1-295).
T1 construct: Immunoprecipitated from NIH 3T3 lysates
Kind of test: co-immunoprecipitation with cyclin D1 from NIH 3T3 lysates, immunoblot.

B1: cdk4 (enzyme, UniProt P30285 2-303, looked up)
chain: AATRYEPVAEIGVGAYGTVYKARDPHSGHFVALKSVRVPNGGAAGGGLPVSTVREVALLRRLEAFEHPNVVRLMDVCATSRTDRDIKVTLVFEHIDQDLRTYLDKAPPPGLPVETIKDLMRQFLSGLDFLHANCIVHRDLKPENILVTSNGTVKLADFGLARIYSYQMALTPVVVTLWYRAPEVLLQSTYATPVDMWSVGCIFAEMFRRKPLFCGNSEADQLGKIFDLIGLPPEDDWPREVSLPRGAFAPRGPRPVQSVVPEMEESGAQLLLEMLTFNPHKRISAFRALQHSYLHKEESDAE
In the case of B1, the binding result is on record as “binds”.

B2: cdk6 (protein)
chain: MEKDSLSRADQQYECVAEIGEGAYGKVFKARDLKNGGRFVALKRVRVQTSEEGMPLSTIREVAVLRHLETFEHPNVVRLFDVCTVSRTDRETKLTLVFEHVDQDLTTYLDKVPEPGVPTETIKDMMFQLLRGLDFLHSHRVVHRDLKPQNILVTSSGQIKLADFGLARIYSFQMALTSVVVTLWYRAPEVLLQSSYATPVDLWSVGCIFAEMFRRKPLFRGSSDVDQLGKILDIIGLPGEEDWPRDVALPRQAFHSKSAQPIEKFVTDIDELGKDLLLKCLTFNPAKRISAYGALNHPYFQDLERYKDNLNSHLPSNQSTSELNTA
B2: the binding result was “binds”.
